Structures can show the parent of a compound that is named as a salt.
Target: T1, Helz2 (Homo sapiens, UniProt Q9BYK8)
T1 construct: 3xFLAG (N); made in house; host or cells: HEK293 cells
Assay: High-throughput screening through surface plasmon resonance for low-molecular-weight compounds that bind to Helz2
Details: purified Helz2 protein, read-out: KD value for binding to and dissociating from Helz2
Source text: 1. High-Throughput Screening for Low-Molecular-Weight Compounds that Bind to Helz2
HEK293 cells were allowed to express Helz2 by using a Helz2 expression vector (p3×FLAG-CMV10-pDIP2), and Helz2 protein was purified.

The chains behind the UniProt entries cited, without tags or fusion partners. Where a name states a change or a piece, a line headed by the entry shows the natural chain unless it says otherwise.
UniProt Q9BYK8: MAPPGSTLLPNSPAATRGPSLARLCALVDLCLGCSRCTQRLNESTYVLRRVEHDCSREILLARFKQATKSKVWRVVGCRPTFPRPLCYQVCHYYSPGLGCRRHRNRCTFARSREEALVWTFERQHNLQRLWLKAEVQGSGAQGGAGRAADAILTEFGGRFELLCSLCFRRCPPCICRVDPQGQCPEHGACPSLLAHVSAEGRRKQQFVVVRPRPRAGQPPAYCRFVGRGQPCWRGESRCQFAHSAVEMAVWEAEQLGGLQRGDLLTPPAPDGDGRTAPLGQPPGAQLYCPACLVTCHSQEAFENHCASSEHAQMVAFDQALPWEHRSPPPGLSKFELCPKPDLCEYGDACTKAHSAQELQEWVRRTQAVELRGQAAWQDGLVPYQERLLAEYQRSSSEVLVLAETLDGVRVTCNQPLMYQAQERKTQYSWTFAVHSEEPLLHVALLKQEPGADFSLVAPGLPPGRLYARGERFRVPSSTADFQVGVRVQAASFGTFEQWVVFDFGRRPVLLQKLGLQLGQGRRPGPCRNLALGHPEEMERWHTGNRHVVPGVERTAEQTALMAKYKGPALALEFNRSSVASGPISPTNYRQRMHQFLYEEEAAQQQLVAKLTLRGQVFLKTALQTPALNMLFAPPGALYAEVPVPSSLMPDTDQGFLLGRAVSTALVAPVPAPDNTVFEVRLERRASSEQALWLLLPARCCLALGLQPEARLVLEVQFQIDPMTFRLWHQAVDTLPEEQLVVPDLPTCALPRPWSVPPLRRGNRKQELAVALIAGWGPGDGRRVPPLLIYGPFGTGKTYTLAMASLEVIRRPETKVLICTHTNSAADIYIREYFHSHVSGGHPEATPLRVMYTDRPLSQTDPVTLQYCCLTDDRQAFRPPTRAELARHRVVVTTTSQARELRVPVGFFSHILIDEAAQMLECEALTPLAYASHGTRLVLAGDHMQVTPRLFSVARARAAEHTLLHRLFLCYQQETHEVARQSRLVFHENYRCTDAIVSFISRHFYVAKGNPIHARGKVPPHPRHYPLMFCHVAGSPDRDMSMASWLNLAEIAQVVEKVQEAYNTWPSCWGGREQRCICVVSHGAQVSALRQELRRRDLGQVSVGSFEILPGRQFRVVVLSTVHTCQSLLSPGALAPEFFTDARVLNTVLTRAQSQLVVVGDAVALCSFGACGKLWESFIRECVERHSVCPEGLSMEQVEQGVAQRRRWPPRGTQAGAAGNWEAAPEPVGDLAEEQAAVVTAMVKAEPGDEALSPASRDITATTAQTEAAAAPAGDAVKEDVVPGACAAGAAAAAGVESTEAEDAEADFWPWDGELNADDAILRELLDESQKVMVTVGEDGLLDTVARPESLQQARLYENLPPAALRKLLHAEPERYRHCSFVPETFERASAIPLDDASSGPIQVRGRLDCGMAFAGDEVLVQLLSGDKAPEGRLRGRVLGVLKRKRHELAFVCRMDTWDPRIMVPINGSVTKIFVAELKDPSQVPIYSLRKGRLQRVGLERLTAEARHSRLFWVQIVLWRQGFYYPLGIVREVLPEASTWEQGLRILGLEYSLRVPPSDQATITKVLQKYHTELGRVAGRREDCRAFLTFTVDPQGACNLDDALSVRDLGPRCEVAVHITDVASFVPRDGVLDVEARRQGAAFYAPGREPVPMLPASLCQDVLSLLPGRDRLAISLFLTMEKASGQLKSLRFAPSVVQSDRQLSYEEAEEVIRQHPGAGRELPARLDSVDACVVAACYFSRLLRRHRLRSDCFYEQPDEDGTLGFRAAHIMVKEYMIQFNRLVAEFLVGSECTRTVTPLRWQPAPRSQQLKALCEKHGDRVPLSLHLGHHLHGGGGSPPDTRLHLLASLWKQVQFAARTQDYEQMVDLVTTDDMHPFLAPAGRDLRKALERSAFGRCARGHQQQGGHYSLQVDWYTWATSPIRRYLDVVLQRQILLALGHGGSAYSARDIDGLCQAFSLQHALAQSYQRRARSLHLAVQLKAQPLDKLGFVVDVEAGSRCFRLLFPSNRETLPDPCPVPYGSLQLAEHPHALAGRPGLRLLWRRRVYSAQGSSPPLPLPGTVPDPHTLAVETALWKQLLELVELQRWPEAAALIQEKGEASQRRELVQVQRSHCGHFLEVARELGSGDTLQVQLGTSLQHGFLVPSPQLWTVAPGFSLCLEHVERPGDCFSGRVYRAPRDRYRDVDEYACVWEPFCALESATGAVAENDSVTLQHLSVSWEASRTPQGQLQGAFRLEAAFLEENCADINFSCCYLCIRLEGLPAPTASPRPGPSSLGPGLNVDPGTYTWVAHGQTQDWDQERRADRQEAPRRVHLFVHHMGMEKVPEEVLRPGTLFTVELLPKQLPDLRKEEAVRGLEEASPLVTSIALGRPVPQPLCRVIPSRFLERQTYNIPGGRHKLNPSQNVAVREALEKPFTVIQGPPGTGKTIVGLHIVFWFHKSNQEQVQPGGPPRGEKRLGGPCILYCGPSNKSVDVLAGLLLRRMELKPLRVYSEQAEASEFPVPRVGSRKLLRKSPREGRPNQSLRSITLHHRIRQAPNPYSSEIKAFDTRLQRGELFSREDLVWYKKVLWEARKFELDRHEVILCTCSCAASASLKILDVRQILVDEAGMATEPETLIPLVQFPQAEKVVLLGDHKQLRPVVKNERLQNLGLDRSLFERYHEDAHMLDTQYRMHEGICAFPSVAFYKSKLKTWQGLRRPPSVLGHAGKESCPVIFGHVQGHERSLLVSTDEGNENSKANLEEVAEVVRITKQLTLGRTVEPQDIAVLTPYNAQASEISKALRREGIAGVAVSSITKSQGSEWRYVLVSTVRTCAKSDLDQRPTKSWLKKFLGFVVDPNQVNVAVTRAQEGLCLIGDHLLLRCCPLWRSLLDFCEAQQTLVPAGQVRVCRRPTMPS

Compound: CN1CCC[C@@H]1CCO[C@](C)(c1ccccc1)c1ccc(Cl)cc1 [clemastine fumarate]
- Kd: 1 to 490 nM

Reference: patent US20210330616A1, “AMELIORATING AGENT FOR OBESITY-RELATED METABOLIC DISEASE” (METABOLIC AND OBESE RESEARCH SCIENCE CORPORATION, priority 2018, published 2021)
